# The list shows a part of the results.
# What was measured:
# Test in all cases: glycan array binding signal (z-score within array); higher = stronger binding
# Conditions in all cases: glycan notation: IUPAC condensed, linker removed
# [1] = target: Gal(b1-2)Gal
# In short: (§1)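 Columns mapping to the same glycan were averaged after glycan names were converted to IUPAC-condensed notation. The data come from 3228 arrays in the Consortium for Functional Glycomics database, limited to those with an available protein sequence. Binding is reported as a within-array Z-score averaged across arrays of one protein sequence and across linkers.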
# [2] = target: Gal(b1-3)Gal
# In short: as §1
# [3] = target: Gal(b1-3)Gal(b1-4)GlcNAc
# In short: as §1
# [4] = target: Gal(b1-3)GalNAc
# In short: as §1
# [5] = target: Gal(b1-3)GalNAc(a1-3)[Fuc(a1-2)]Gal(b1-4)Glc
# In short: as §1
# [6] = target: Gal(b1-3)GalNAc(a1-3)[Fuc(a1-2)]Gal(b1-4)GlcNAc
# In short: as §1
# [7] = target: Gal(b1-3)GalNAc(b1-3)Gal
# In short: as §1
# [8] = target: Gal(b1-3)GalNAc(b1-3)Gal(a1-4)Gal(b1-4)Glc
# In short: as §1
# [9] = target: Gal(b1-3)GalNAc(b1-4)Gal(b1-4)Glc
# In short: as §1
# [10] = target: Gal(b1-3)GalNAc(b1-4)[Neu5Ac(a2-3)]Gal(b1-4)Glc
# In short: as §1
# [11] = target: Gal(b1-3)GlcNAc
# In short: as §1
# [12] = target: Gal(b1-3)GlcNAc(a1-3)Gal(b1-4)GlcNAc
# In short: as §1
# [13] = target: Gal(b1-3)GlcNAc(a1-6)Gal(b1-4)GlcNAc
# In short: as §1
# [14] = target: Gal(b1-3)GlcNAc(b1-2)Man
# In short: as §1
# [15] = target: Gal(b1-3)GlcNAc(b1-2)Man(a1-3)[Gal(b1-3)GlcNAc(b1-2)Man(a1-6)]Man(b1-4)GlcNAc(b1-4)GlcNAc
# In short: as §1
# [16] = target: Gal(b1-3)GlcNAc(b1-2)Man(a1-3)[Gal(b1-3)GlcNAc(b1-2)Man(a1-6)]Man(b1-4)GlcNAc(b1-4)[Fuc(a1-6)]GlcNAc
# In short: as §1
# [17] = target: Gal(b1-3)GlcNAc(b1-2)Man(a1-3)[GlcNAc(b1-4)][Gal(b1-3)GlcNAc(b1-2)Man(a1-6)]Man(b1-4)GlcNAc(b1-4)GlcNAc
# In short: as §1
# [18] = target: Gal(b1-3)GlcNAc(b1-2)[Gal(b1-3)GlcNAc(b1-6)]Man(a1-6)[Gal(b1-3)GlcNAc(b1-2)Man(a1-3)]Man(b1-4)GlcNAc(b1-4)GlcNAc
# In short: as §1
# [19] = target: Gal(b1-3)GlcNAc(b1-3)Gal(b1-3)GlcNAc
# In short: as §1
# [20] = target: Gal(b1-3)GlcNAc(b1-3)Gal(b1-4)Glc
# In short: as §1
# [21] = target: Gal(b1-3)GlcNAc(b1-3)Gal(b1-4)GlcNAc
# In short: as §1
# [22] = target: Gal(b1-3)GlcNAc(b1-3)Gal(b1-4)GlcNAc(b1-2)Man(a1-3)[Gal(b1-3)GlcNAc(b1-3)Gal(b1-4)GlcNAc(b1-2)Man(a1-6)]Man(b1-4)GlcNAc(b1-4)GlcNAc
# In short: as §1
# [23] = target: Gal(b1-3)GlcNAc(b1-3)Gal(b1-4)GlcNAc(b1-2)[Gal(b1-3)GlcNAc(b1-3)Gal(b1-4)GlcNAc(b1-6)]Man(a1-6)[Gal(b1-3)GlcNAc(b1-3)Gal(b1-4)GlcNAc(b1-2)Man(a1-3)]Man(b1-4)GlcNAc(b1-4)[Fuc(a1-6)]GlcNAc
# In short: as §1
# [24] = target: Gal(b1-3)GlcNAc(b1-3)Gal(b1-4)GlcNAc(b1-3)Gal(b1-4)GlcNAc(b1-2)[Gal(b1-3)GlcNAc(b1-3)Gal(b1-4)GlcNAc(b1-3)Gal(b1-4)GlcNAc(b1-6)]Man(a1-6)[Gal(b1-3)GlcNAc(b1-3)Gal(b1-4)GlcNAc(b1-3)Gal(b1-4)GlcNAc(b1-2)Man(a1-3)]Man(b1-4)GlcNAc(b1-4)[Fuc(a1-6)]GlcNAc
# In short: as §1
# [25] = target: Gal(b1-3)GlcNAc(b1-3)Gal(b1-4)GlcNAc(b1-6)[Gal(b1-3)GlcNAc(b1-3)]Gal(b1-4)Glc
# In short: as §1
# [26] = target: Gal(b1-3)GlcNAc(b1-3)Gal(b1-4)[Fuc(a1-3)]GlcNAc
# In short: as §1
# [27] = target: Gal(b1-3)GlcNAc(b1-3)Gal(b1-4)[Fuc(a1-3)]GlcNAc(b1-6)[Gal(b1-3)GlcNAc(b1-3)]Gal(b1-4)Glc
# In short: as §1
# [28] = target: Gal(b1-3)GlcNAc(b1-3)GalNAc
# In short: as §1
# [29] = target: Gal(b1-3)GlcNAc(b1-6)Gal(b1-4)GlcNAc
# In short: as §1
# [30] = target: Gal(b1-3)GlcNAc(b1-6)GalNAc
# In short: as §1
# [31] = target: Gal(b1-3)GlcNAc(b1-6)[Gal(b1-3)]GalNAc
# In short: as §1
# [32] = target: Gal(b1-3)GlcNAc6S
# In short: as §1
# [33] = target: Gal(b1-3)[Fuc(a1-4)]GlcNAc
# In short: as §1
# [34] = target: Gal(b1-3)[Fuc(a1-4)]GlcNAc(b1-2)Man
# In short: as §1
# [35] = target: Gal(b1-3)[Fuc(a1-4)]GlcNAc(b1-2)Man(a1-3)[Gal(b1-3)[Fuc(a1-4)]GlcNAc(b1-2)Man(a1-6)]Man(b1-4)GlcNAc(b1-4)[Fuc(a1-6)]GlcNAc
# In short: as §1
# [36] = target: Gal(b1-3)[Fuc(a1-4)]GlcNAc(b1-3)Gal(b1-3)[Fuc(a1-4)]GlcNAc
# In short: as §1
# [37] = target: Gal(b1-3)[Fuc(a1-4)]GlcNAc(b1-3)Gal(b1-4)[Fuc(a1-3)]GlcNAc
# In short: as §1
# [38] = target: Gal(b1-3)[Fuc(a1-4)]GlcNAc(b1-6)GalNAc
# In short: as §1
# [39] = target: Gal(b1-3)[GlcNAc(b1-6)]GalNAc
# In short: as §1
# [40] = target: Gal(b1-3)[Neu5Ac(a2-6)]GalNAc
# In short: as §1
# [41] = target: Gal(b1-3)[Neu5Ac(a2-6)]GlcNAc(b1-4)Gal(b1-4)Glc
# In short: as §1
# [42] = target: Gal(b1-3)[Neu5Ac(b2-6)]GalNAc
# In short: as §1
# [43] = target: Gal(b1-4)Gal
# In short: as §1
# [44] = target: Gal(b1-4)GalNAc(a1-3)[Fuc(a1-2)]Gal(b1-4)GlcNAc
# In short: as §1
# [45] = target: Gal(b1-4)GalNAc(b1-3)[Fuc(a1-2)]Gal(b1-4)GlcNAc
# In short: as §1
binder,measurement,setting,value
Clec39 (Caenorhabditis elegans) (protein) MTSFYDNSSSSSKPVPLKTSRAQKIQILIFDNWKLILYGAISTLILVLAIMFSTLFFALPAANCDENSEPTKYYTTNAEITTTITTTNQKTTSTASSHLTTISSSATQIYSESSSSSTSQSTFTQSPPEISTTTIAPSDFSCQHGFTLVNNKCWKLVTSNQARPDADKICNGYGGATLFSIKSEQDNRAMIHFVKGQDIDFLWSGLLCSAGEPISCIWDIENGSTANYSNFADGFPNIVYGNCVYFITSGDEAGQWGNEQCGQVMNFVCELPATFQGKDGCKNNYEKSCYLRFDLNLTVPQAQNFCLEKCANLVSIHSANEVRFIMTIYDFIGEILIGALAPAQDFIYWLDGTPANYNNLKFFYNSTCVHMTVAPGMQNVGKWFTRFCTETGKFLCKRSIKNSCT,glycan array binding signal (z-score),[1],0.354
same,glycan array binding signal (z-score),[2],-0.611
same,glycan array binding signal (z-score),[3],-0.891
same,glycan array binding signal (z-score),[4],0.424
same,glycan array binding signal (z-score),[5],-0.047
same,glycan array binding signal (z-score),[6],-0.567
same,glycan array binding signal (z-score),[7],-0.318
same,glycan array binding signal (z-score),[8],0.073
same,glycan array binding signal (z-score),[9],0.045
same,glycan array binding signal (z-score),[10],-0.59
same,glycan array binding signal (z-score),[11],-0.56
same,glycan array binding signal (z-score),[12],-0.68
same,glycan array binding signal (z-score),[13],-0.821
same,glycan array binding signal (z-score),[14],0.026
same,glycan array binding signal (z-score),[15],1.62
same,glycan array binding signal (z-score),[16],-0.079
same,glycan array binding signal (z-score),[17],0.28
same,glycan array binding signal (z-score),[18],0.065
same,glycan array binding signal (z-score),[19],-1.07
same,glycan array binding signal (z-score),[20],-0.912
same,glycan array binding signal (z-score),[21],-1.34
same,glycan array binding signal (z-score),[22],0.262
same,glycan array binding signal (z-score),[23],0.48
same,glycan array binding signal (z-score),[24],0.744
same,glycan array binding signal (z-score),[25],0.201
same,glycan array binding signal (z-score),[26],-0.715
same,glycan array binding signal (z-score),[27],0.976
same,glycan array binding signal (z-score),[28],-0.666
same,glycan array binding signal (z-score),[29],-0.45
same,glycan array binding signal (z-score),[30],0.196
same,glycan array binding signal (z-score),[31],-0.019
same,glycan array binding signal (z-score),[32],-0.536
same,glycan array binding signal (z-score),[33],-0.069
same,glycan array binding signal (z-score),[34],0.559
same,glycan array binding signal (z-score),[35],-0.546
same,glycan array binding signal (z-score),[36],-1.29
same,glycan array binding signal (z-score),[37],0.602
same,glycan array binding signal (z-score),[38],0.035
same,glycan array binding signal (z-score),[39],-0.522
same,glycan array binding signal (z-score),[40],-0.557
same,glycan array binding signal (z-score),[41],-0.851
same,glycan array binding signal (z-score),[42],-0.659
same,glycan array binding signal (z-score),[43],-0.453
same,glycan array binding signal (z-score),[44],0.089
same,glycan array binding signal (z-score),[45],1.23

# A different layout for some results above:
binder	measurement	setting	value
Clec39 (Caenorhabditis elegans) (protein) MTSFYDNSSSSSKPVPLKTSRAQKIQILIFDNWKLILYGAISTLILVLAIMFSTLFFALPAANCDENSEPTKYYTTNAEITTTITTTNQKTTSTASSHLTTISSSATQIYSESSSSSTSQSTFTQSPPEISTTTIAPSDFSCQHGFTLVNNKCWKLVTSNQARPDADKICNGYGGATLFSIKSEQDNRAMIHFVKGQDIDFLWSGLLCSAGEPISCIWDIENGSTANYSNFADGFPNIVYGNCVYFITSGDEAGQWGNEQCGQVMNFVCELPATFQGKDGCKNNYEKSCYLRFDLNLTVPQAQNFCLEKCANLVSIHSANEVRFIMTIYDFIGEILIGALAPAQDFIYWLDGTPANYNNLKFFYNSTCVHMTVAPGMQNVGKWFTRFCTETGKFLCKRSIKNSCT	glycan array binding signal (z-score)	[26]	-0.715
same	glycan array binding signal (z-score)	[27]	0.976
same	glycan array binding signal (z-score)	[28]	-0.666
same	glycan array binding signal (z-score)	[29]	-0.45
same	glycan array binding signal (z-score)	[30]	0.196
same	glycan array binding signal (z-score)	[31]	-0.019
same	glycan array binding signal (z-score)	[32]	-0.536
same	glycan array binding signal (z-score)	[33]	-0.069
same	glycan array binding signal (z-score)	[34]	0.559
same	glycan array binding signal (z-score)	[35]	-0.546
same	glycan array binding signal (z-score)	[36]	-1.29
same	glycan array binding signal (z-score)	[37]	0.602
same	glycan array binding signal (z-score)	[38]	0.035
same	glycan array binding signal (z-score)	[39]	-0.522

# From the supplement of paper PMC8728848
